Reference: publication PMC8424379 (2021)
No constants are given. Whether binding was seen depends on the method and setting. Some entries that bind do so weakly or less than the wild type. Sequences can lack the tags named with a protein.

T1: Raf2 fused to Gal4 DNA-binding domain (S. pombe) (UniProt O74560)
T1 sequence: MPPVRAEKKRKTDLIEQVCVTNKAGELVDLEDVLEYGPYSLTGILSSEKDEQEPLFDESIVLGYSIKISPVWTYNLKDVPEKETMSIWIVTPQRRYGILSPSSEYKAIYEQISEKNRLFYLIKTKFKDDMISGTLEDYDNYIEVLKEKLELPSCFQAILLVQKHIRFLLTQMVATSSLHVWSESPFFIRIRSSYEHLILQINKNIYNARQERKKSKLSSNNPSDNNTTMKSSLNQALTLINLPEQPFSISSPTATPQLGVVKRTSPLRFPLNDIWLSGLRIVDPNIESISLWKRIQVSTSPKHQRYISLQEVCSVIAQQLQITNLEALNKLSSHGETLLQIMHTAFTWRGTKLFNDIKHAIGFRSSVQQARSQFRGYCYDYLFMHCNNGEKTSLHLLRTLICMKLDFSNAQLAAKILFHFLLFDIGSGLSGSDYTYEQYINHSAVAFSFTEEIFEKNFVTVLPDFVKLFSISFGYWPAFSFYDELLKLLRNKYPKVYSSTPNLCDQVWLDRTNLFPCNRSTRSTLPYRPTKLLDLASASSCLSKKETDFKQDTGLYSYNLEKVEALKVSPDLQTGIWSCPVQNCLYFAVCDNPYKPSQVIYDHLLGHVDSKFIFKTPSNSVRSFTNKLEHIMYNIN

T2: Clr3 fused to the Gal4 DNA binding domain (S. pombe) (UniProt P56523)
T2 sequence: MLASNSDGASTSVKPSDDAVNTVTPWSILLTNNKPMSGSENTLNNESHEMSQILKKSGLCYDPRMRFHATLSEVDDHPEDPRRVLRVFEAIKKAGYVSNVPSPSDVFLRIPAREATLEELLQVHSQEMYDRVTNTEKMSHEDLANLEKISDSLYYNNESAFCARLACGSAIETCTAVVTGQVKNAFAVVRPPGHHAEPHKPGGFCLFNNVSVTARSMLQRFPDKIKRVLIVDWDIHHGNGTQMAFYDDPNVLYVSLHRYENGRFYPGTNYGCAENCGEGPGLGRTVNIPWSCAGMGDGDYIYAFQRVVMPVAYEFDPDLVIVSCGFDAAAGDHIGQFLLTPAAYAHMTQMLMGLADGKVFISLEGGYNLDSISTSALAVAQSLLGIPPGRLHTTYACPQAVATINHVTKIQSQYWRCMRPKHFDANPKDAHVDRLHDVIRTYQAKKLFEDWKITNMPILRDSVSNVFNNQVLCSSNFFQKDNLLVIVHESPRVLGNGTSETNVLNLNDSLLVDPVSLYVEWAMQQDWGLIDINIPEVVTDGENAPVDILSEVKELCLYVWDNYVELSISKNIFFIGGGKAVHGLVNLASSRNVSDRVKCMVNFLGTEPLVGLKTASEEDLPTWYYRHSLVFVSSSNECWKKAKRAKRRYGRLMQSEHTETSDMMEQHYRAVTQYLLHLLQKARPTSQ

B1: Ccq1_(496–583), Raf2-binding motif of Ccq1, fused to Gal4 activation domain (domain or fragment, UniProt Q10432 496-583)
chain: SQQEADEVELSNNYDLQGAAVQYLQRRLRMVEDELHEAINSKNVQQSRSEELEQQISKLTDNLQEYRNTVRELKLDLEKSKKKNEDLS
B2: full-length Ccq1 fused to Gal4 activation domain (protein, UniProt Q10432 1-735)
chain: MSEINDFTNSIIINESDTKYEVYSEVNSSNRWIAKEDCPSPLEDVWLLKLAGHKRKLEEPLSCMRNEEPASKQREIEKFLRTDLDHSENDFLTQEVDEFPSTQQLFPIPLQNDTAFDSSEESITKSSKSSFSVLDIGLPMSALQRKMMHRLVQYFAFCIDHFCTGPSDSRIQEKIRLFIQSAHNIAKHPSLYDTEVRNPSAAESTNSHVSLDASNFSSYAENSSKFLFLQELFKNLSPSYSKTFFLFISNQFLANTLTQWLKSQNIDAELWAEEDAKTSQHPAIWICVSKKAPSASHFLQSCPDLSATIFYDIEAYMSVTSSLPSIQSLVLRLIHLGSIEHAIKCFQSSYNASFLVNIVGVVATLSSSSEENSEASNLSTLFEKSGNFEEILGSESHSSITEKTRDIAKNVATWLKNGENFSSWPLPPLMDLASLSVAEPRDSQPSVSQVNDTFVKSSDSTFPSSQSMQSPSKLHSLTSNATDLLSSSSLKKNFFSQQEADEVELSNNYDLQGAAVQYLQRRLRMVEDELHEAINSKNVQQSRSEELEQQISKLTDNLQEYRNTVRELKLDLEKSKKKNEDLSKLEVEKVEEIANLKKELTHLAKQQEFGFKYVQEFSNEDLQGKLIEANEKNYKLTQLLKTQKEDADFITNQYQNASTFAAEQSKEVAKLQAECKRLQAINSKVMEEVKVYNDSRVEALLAKVSSLEETLKILEQKSLPKFTPHNQSPRIIDSN
B3: full-length Ccq1 L511R fused to Gal4 activation domain (protein, UniProt Q10432 1-735)
chain: MSEINDFTNSIIINESDTKYEVYSEVNSSNRWIAKEDCPSPLEDVWLLKLAGHKRKLEEPLSCMRNEEPASKQREIEKFLRTDLDHSENDFLTQEVDEFPSTQQLFPIPLQNDTAFDSSEESITKSSKSSFSVLDIGLPMSALQRKMMHRLVQYFAFCIDHFCTGPSDSRIQEKIRLFIQSAHNIAKHPSLYDTEVRNPSAAESTNSHVSLDASNFSSYAENSSKFLFLQELFKNLSPSYSKTFFLFISNQFLANTLTQWLKSQNIDAELWAEEDAKTSQHPAIWICVSKKAPSASHFLQSCPDLSATIFYDIEAYMSVTSSLPSIQSLVLRLIHLGSIEHAIKCFQSSYNASFLVNIVGVVATLSSSSEENSEASNLSTLFEKSGNFEEILGSESHSSITEKTRDIAKNVATWLKNGENFSSWPLPPLMDLASLSVAEPRDSQPSVSQVNDTFVKSSDSTFPSSQSMQSPSKLHSLTSNATDLLSSSSLKKNFFSQQEADEVELSNNYDRQGAAVQYLQRRLRMVEDELHEAINSKNVQQSRSEELEQQISKLTDNLQEYRNTVRELKLDLEKSKKKNEDLSKLEVEKVEEIANLKKELTHLAKQQEFGFKYVQEFSNEDLQGKLIEANEKNYKLTQLLKTQKEDADFITNQYQNASTFAAEQSKEVAKLQAECKRLQAINSKVMEEVKVYNDSRVEALLAKVSSLEETLKILEQKSLPKFTPHNQSPRIIDSN
B4: full-length Ccq1 V516R fused to Gal4 activation domain (protein, UniProt Q10432 1-735)
chain: MSEINDFTNSIIINESDTKYEVYSEVNSSNRWIAKEDCPSPLEDVWLLKLAGHKRKLEEPLSCMRNEEPASKQREIEKFLRTDLDHSENDFLTQEVDEFPSTQQLFPIPLQNDTAFDSSEESITKSSKSSFSVLDIGLPMSALQRKMMHRLVQYFAFCIDHFCTGPSDSRIQEKIRLFIQSAHNIAKHPSLYDTEVRNPSAAESTNSHVSLDASNFSSYAENSSKFLFLQELFKNLSPSYSKTFFLFISNQFLANTLTQWLKSQNIDAELWAEEDAKTSQHPAIWICVSKKAPSASHFLQSCPDLSATIFYDIEAYMSVTSSLPSIQSLVLRLIHLGSIEHAIKCFQSSYNASFLVNIVGVVATLSSSSEENSEASNLSTLFEKSGNFEEILGSESHSSITEKTRDIAKNVATWLKNGENFSSWPLPPLMDLASLSVAEPRDSQPSVSQVNDTFVKSSDSTFPSSQSMQSPSKLHSLTSNATDLLSSSSLKKNFFSQQEADEVELSNNYDLQGAARQYLQRRLRMVEDELHEAINSKNVQQSRSEELEQQISKLTDNLQEYRNTVRELKLDLEKSKKKNEDLSKLEVEKVEEIANLKKELTHLAKQQEFGFKYVQEFSNEDLQGKLIEANEKNYKLTQLLKTQKEDADFITNQYQNASTFAAEQSKEVAKLQAECKRLQAINSKVMEEVKVYNDSRVEALLAKVSSLEETLKILEQKSLPKFTPHNQSPRIIDSN
B5: full-length Ccq1 Y518R fused to Gal4 activation domain (protein, UniProt Q10432 1-735)
chain: MSEINDFTNSIIINESDTKYEVYSEVNSSNRWIAKEDCPSPLEDVWLLKLAGHKRKLEEPLSCMRNEEPASKQREIEKFLRTDLDHSENDFLTQEVDEFPSTQQLFPIPLQNDTAFDSSEESITKSSKSSFSVLDIGLPMSALQRKMMHRLVQYFAFCIDHFCTGPSDSRIQEKIRLFIQSAHNIAKHPSLYDTEVRNPSAAESTNSHVSLDASNFSSYAENSSKFLFLQELFKNLSPSYSKTFFLFISNQFLANTLTQWLKSQNIDAELWAEEDAKTSQHPAIWICVSKKAPSASHFLQSCPDLSATIFYDIEAYMSVTSSLPSIQSLVLRLIHLGSIEHAIKCFQSSYNASFLVNIVGVVATLSSSSEENSEASNLSTLFEKSGNFEEILGSESHSSITEKTRDIAKNVATWLKNGENFSSWPLPPLMDLASLSVAEPRDSQPSVSQVNDTFVKSSDSTFPSSQSMQSPSKLHSLTSNATDLLSSSSLKKNFFSQQEADEVELSNNYDLQGAAVQRLQRRLRMVEDELHEAINSKNVQQSRSEELEQQISKLTDNLQEYRNTVRELKLDLEKSKKKNEDLSKLEVEKVEEIANLKKELTHLAKQQEFGFKYVQEFSNEDLQGKLIEANEKNYKLTQLLKTQKEDADFITNQYQNASTFAAEQSKEVAKLQAECKRLQAINSKVMEEVKVYNDSRVEALLAKVSSLEETLKILEQKSLPKFTPHNQSPRIIDSN
B6: full-length Ccq1 L519R fused to Gal4 activation domain (protein, UniProt Q10432 1-735)
chain: MSEINDFTNSIIINESDTKYEVYSEVNSSNRWIAKEDCPSPLEDVWLLKLAGHKRKLEEPLSCMRNEEPASKQREIEKFLRTDLDHSENDFLTQEVDEFPSTQQLFPIPLQNDTAFDSSEESITKSSKSSFSVLDIGLPMSALQRKMMHRLVQYFAFCIDHFCTGPSDSRIQEKIRLFIQSAHNIAKHPSLYDTEVRNPSAAESTNSHVSLDASNFSSYAENSSKFLFLQELFKNLSPSYSKTFFLFISNQFLANTLTQWLKSQNIDAELWAEEDAKTSQHPAIWICVSKKAPSASHFLQSCPDLSATIFYDIEAYMSVTSSLPSIQSLVLRLIHLGSIEHAIKCFQSSYNASFLVNIVGVVATLSSSSEENSEASNLSTLFEKSGNFEEILGSESHSSITEKTRDIAKNVATWLKNGENFSSWPLPPLMDLASLSVAEPRDSQPSVSQVNDTFVKSSDSTFPSSQSMQSPSKLHSLTSNATDLLSSSSLKKNFFSQQEADEVELSNNYDLQGAAVQYRQRRLRMVEDELHEAINSKNVQQSRSEELEQQISKLTDNLQEYRNTVRELKLDLEKSKKKNEDLSKLEVEKVEEIANLKKELTHLAKQQEFGFKYVQEFSNEDLQGKLIEANEKNYKLTQLLKTQKEDADFITNQYQNASTFAAEQSKEVAKLQAECKRLQAINSKVMEEVKVYNDSRVEALLAKVSSLEETLKILEQKSLPKFTPHNQSPRIIDSN

Target: T1, Raf2 fused to Gal4 DNA-binding domain (S. pombe)
Experiment: two-hybrid; L40 strain with pBTM116 and pACT2 fusion plasmids; Raf2, Tpz1 or Clr3 on the Gal4 DNA-binding domain, WT and mutant Ccq1 on the Gal4 activation domain; liquid β-galactosidase assay

binding, binds:
B1
B2

Target: T2, Clr3 fused to the Gal4 DNA binding domain (S. pombe)
Experiment: as above

binding, binds:
B2
B3
B4
B5
B6
